The values below come from patent US10159726B2, “Peptides, combination of peptides and scaffolds for use in immunotherapeutic treatment of various cancers” (Immatics Biotechnologies GmbH, priority 2015, dated 2018).

What all share (parameters): species or system human
Data set [1] relates to HLA-A*24 molecules of primary tumors. Briefly: Identification and relative LC-MS quantitation of HLA-A*24 tumor-associated peptides presented on tissue samples (XPRESIDENT presentation profiles). Particulars: for ENTITIES: Table 9A: selected HLA-A*24-binding tumor-associated peptides, cancer entities on which the peptide was found presented; for Peptide Presentation on cancer entities: Table 9B: selected HLA-A*24 peptides, presentation on additional cancer entities.

The test system of data set [2] is source genes of selected peptides. Kind of data set: Expression profiling of source genes by in-house RNAseq, tumor vs normal tissues (target coverage). Particulars: share of tumors with more than 1.5-fold higher expression than highest relevant normal tissue, in-house RNASeq.
For data set [3] the test system is unchanged. Briefly: Target coverage of source genes in tumor entities based on TCGA Research Network data. Particulars: over-expressed = more than 2-fold above the highest 75% percentile of normal organs.
The mark [4] stands for this setting: FIG. 1 presentation profile, shown are only samples where the peptide was found to be presented.

For some of these results: Expression values are those of the mRNA of the gene that encodes the peptide; a gene is named only where it was looked up.

As to “142 (VYVDDIYVI; listed as Homo sapiens) [compound 142]”, the ENTITIES entry in data set [1] was “NSCLC, GC”.

Consider “276 (QYLDVLHAL; listed as Homo sapiens) [compound 276]”, for which the ENTITIES entry in data set [1] was “GC, RCC”.

In the case of “222 (HYSTLVHMF; listed as Homo sapiens) [compound 222]”, in data set [1], the “Peptide Presentation on cancer entities” value was “NSCLC”.

Consider “EYNSDLHQFF (listed as Homo sapiens) [SEQ ID NO: 345]”, for which the “number of cancer tissues on which the peptide was found presented” value (“number of cancer tissues” below) in data set [1] (setting [4]) is on record as 13.

Take “414 (MYPYIYHVL; listed as Homo sapiens) [compound 414]”: the ENTITIES entry in data set [1] is “HCC, NSCLC, GC, GB, PCA”.

As for “115 (RYLNKSFVL; listed as Homo sapiens) [compound 115]”, the ENTITIES entry in data set [1] was “NSCLC, GC, GB, PCA, HCC”.

In the case of “357 (QFITSTNTF; listed as Homo sapiens) [compound 357]”, in data set [1], the ENTITIES result is listed as “NSCLC”.

In the case of “243 (SYLELANTL; listed as Homo sapiens) [compound 243]”, the ENTITIES entry in data set [1] is given as “PCA, NSCLC”.

On to “269 (QYPYLQAFF; listed as Homo sapiens) [compound 269]”, for which, in data set [1], the ENTITIES result is reported as “NSCLC”.

As to “146 (NYYERIHAL; listed as Homo sapiens) [compound 146]”, the “Peptide Presentation on cancer entities” value in data set [1] is listed as “NSCLC”.

Take “256 (VFGKSAYLF; listed as Homo sapiens) [compound 256]”: the “Peptide Presentation on cancer entities” value in data set [1] is reported as “NSCLC”.

For the substance “297 (TYIDTRTVF; listed as Homo sapiens) [compound 297]”, in data set [1], the ENTITIES entry is given as “PCA, HCC, NSCLC, GC”.

“375 (KYTDYILKI; listed as Homo sapiens) [compound 375]”: the ENTITIES result in data set [1] is given as “NSCLC”.

Consider “VFSPDGHLF (listed as Homo sapiens) [SEQ ID NO: 360]”, for which the “number of cancer tissues” value in data set [1] (setting [4]) was found to be 33.

In the case of “270 (YYSQESKVLYL; listed as Homo sapiens) [compound 270]”, in data set [1], the “Peptide Presentation on cancer entities” value is given as “HCC”.

Consider “EYFTPLLSGQF (listed as Homo sapiens) [SEQ ID NO: 165]”, for which the “number of cancer tissues” value in data set [1] (setting [4]) stood at 10.

Consider “193 (LYLENNAQTQF; listed as Homo sapiens) [compound 193]”, for which the “Peptide Presentation on cancer entities” value in data set [1] is “NSCLC”.

Turning to “187 (AYAANVHYL; listed as Homo sapiens) [compound 187]”, in data set [1], the ENTITIES result is “NSCLC”.

As to “119 (VYRVYVTTF; listed as Homo sapiens) [compound 119]”, the ENTITIES result in data set [1] is “NSCLC, GC”.

As for “250 (KYPDIASPTF; listed as Homo sapiens) [compound 250]”, in data set [1], the ENTITIES entry is given as “HCC”.

“284 (DYLKDPVTI; listed as Homo sapiens) [compound 284]”: the ENTITIES result in data set [1] is reported as “NSCLC”.

For “138 (VYNAVSTSF; listed as Homo sapiens) [compound 138]”, in data set [1], the ENTITIES result is on record as “NSCLC, GC”.

With “272 (RYVFPLPYL; listed as Homo sapiens) [compound 272]”, the “Peptide Presentation on cancer entities” value in data set [1] was “NSCLC”.

Take “109 (LFITGGQFF; listed as Homo sapiens) [compound 109]”: the ENTITIES entry in data set [1] is recorded as “HCC, NSCLC, GC”.

For the substance “265 (SYLNEAFSF; listed as Homo sapiens) [compound 265]”, the ENTITIES result in data set [1] was “PCA”.

On to “402 (VWSDVTPLTF; listed as Homo sapiens) [compound 402]”, for which the ENTITIES result in data set [1] is recorded as “NSCLC, CRC, GC, RCC, GB, PCA, HCC”.

Turning to “236 (VYLPKIPSW; listed as Homo sapiens) [compound 236]”, the ENTITIES entry in data set [1] was “HCC, NSCLC”.

Turning to “131 (EYLDRIGQLFF; listed as Homo sapiens) [compound 131]”, the ENTITIES result in data set [1] is “NSCLC, GC, RCC, GB, PCA, HCC”.

As to “147 (LYLAFPLAF; listed as Homo sapiens) [compound 147]”, the ENTITIES result in data set [1] is reported as “NSCLC, GC, PCA, HCC”.

In the case of “303 (LYSVIKEDF; listed as Homo sapiens) [compound 303]”, the ENTITIES result in data set [1] is “GB, PCA, HCC, NSCLC, GC”.

For the substance “252 (AFGQETNVPLNNF; listed as Homo sapiens) [compound 252]”, in data set [1], the ENTITIES result is given as “HCC”.

For the substance “156 (YYMELTKLLL; listed as Homo sapiens) [compound 156]”, the ENTITIES result in data set [1] is “NSCLC, GC, HCC”.

Consider “356 (NYMPGQLTI; listed as Homo sapiens) [compound 356]”, for which, in data set [1], the ENTITIES result is on record as “RCC, NSCLC, GC”.

For “413: peptide found in MST1R (gene looked up) (NYLLYVSNF; listed as Homo sapiens) [compound 413]”, in data set [1], the ENTITIES entry is recorded as “HCC, NSCLC, GC”.

For the substance “206 (NYLDVATFL; listed as Homo sapiens) [compound 206]”, the ENTITIES result in data set [1] is given as “NSCLC, GC, GB, PCA, HCC”.

Turning to “176 (FYINGQYQF; listed as Homo sapiens) [compound 176]”, the ENTITIES result in data set [1] is listed as “GB, PCA, HCC, NSCLC, GC”.

Consider “107 (KYFPYLVVI; listed as Homo sapiens) [compound 107]”, for which the ENTITIES result in data set [1] is listed as “HCC, NSCLC, GC”.

For the substance “VYVQILQKL (listed as Homo sapiens) [SEQ ID NO: 111]”, in data set [1] (setting [4]), the “number of cancer tissues” value was found to be 32 and the “number of normal tissues on which the peptide was found presented” value is 1.

For the substance “223 (TFITQSPLL; listed as Homo sapiens) [compound 223]”, the ENTITIES result in data set [1] is recorded as “NSCLC”.

With “139 (IFGIFPNQF; listed as Homo sapiens) [compound 139]”, in data set [1], the ENTITIES result is on record as “PCA, NSCLC”.

With “384 (RYFDVGLHNF; listed as Homo sapiens) [compound 384]”, the ENTITIES entry in data set [1] is on record as “GC, GB, PCA, HCC, NSCLC”.

With “153 (VYVPFGGKSMITF; listed as Homo sapiens) [compound 153]”, the ENTITIES result in data set [1] is “NSCLC”.

Consider “306 (VYPAEQPQI; listed as Homo sapiens) [compound 306]”, for which the ENTITIES result in data set [1] is recorded as “NSCLC”.

Regarding “239: peptide found in LRBA (gene looked up) (VYAIFRILL; listed as Homo sapiens) [compound 239]”, the “Target coverage, over-expression of source gene, AML” value in data set [2] (AML (N = 7)) is “I (<19% over-expression = I)”. Further, the “Target coverage, over-expression of source gene, BRCA” value in data set [2] (BRCA (N = 10)) is “II (20-49% = II)”. For the same substance, in data set [2] (CLL (N = 10)), the “Target coverage, over-expression of source gene, CLL” value is “I (<19% over-expression = I)”. In addition, the “Target coverage, over-expression of source gene, CRC” value in data set [2] (CRC (N = 20)) is “I (<19% over-expression = I)”. Moreover, the “Target coverage, over-expression of source gene, GB” value in data set [2] (GB (N = 24)) was “I (<19% over-expression = I)”. Moreover, the “Target coverage, over-expression of source gene, HCC” value in data set [2] (HCC (N = 15)) is reported as “I (<19% over-expression = I)”. Also, the “Target coverage, over-expression of source gene, OC” value in data set [2] (OC (N = 12)) is on record as “I (<19% over-expression = I)”. Moreover, the “Target coverage, over-expression of source gene, OSCAR” value in data set [2] (OSCAR (N = 11)) was “I (<19% over-expression = I)”. Moreover, the “Target coverage, over-expression of source gene, PC” value in data set [2] (PC (N = 26)) is recorded as “I (<19% over-expression = I)”. Also, the “Target coverage, over-expression of source gene, RCC” value in data set [2] (RCC (N = 10)) is given as “I (<19% over-expression = I)”. In data set [2] (SCLC (N = 10)), the “Target coverage, over-expression of source gene, SCLC” value is “II (20-49% = II)”. Also, the “Target coverage, over-expression of source gene, pNSCLC” value in data set [2] (pNSCLC (N = 11)) was “I (<19% over-expression = I)”.

“396: peptide found in GRIK3 (gene looked up) (YYHFIFTTL; listed as Homo sapiens) [compound 396]”: the “Target coverage, over-expression category of source gene, LGG (N = 534)” value in data set [3] (Lower grade glioma) is listed as “A (>=50% of tumors above the cutoff)”. Further, the “Target coverage, over-expression category of source gene, PCPG (N = 184)” value in data set [3] (Pheochromocytoma and paraganglioma) is listed as “B (>=20% of tumors above the cutoff, but <50%)”.
